According to PubChem BioAssay AID1347075 (National Center for Advancing Translational Sciences (NCATS), 2019):
“And” between values parts separate entries of the source, which are not always exact repeats. Identical values can stand only once. About 5,500 (1.4%) of roughly 400,000 compounds were called active. Inconclusive results, whose numbers are uncertain, are shown with a selection of clear calls. Calls come from the whole dose curve; as a rule, active = well fitted cell-killing curve with a large enough effect; inconclusive = small, poorly fitted or top-dose-only effect, or effect the other way; inactive = flat fitted curve, though single readings scatter. Potencies of inconclusive entries are doubtful fits and often do not repeat.

Experiment: qHTS assay for MDR1-selective chemotherapeutics: Primary screen using the parental adenocarcinoma cell KB-3-1; note: nearly all actives have a fitted effect of over 60% in size
Conditions: KB-3-1 viability, CellTiter-Glo ATP luminescence, 72 h; activity change, negative = cytotoxic: at 46.1 µM (top of the series)
In short: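 KB-3-1 cells, DMEM (no phenol red) + 10% FBS; compound by pin transfer, 72 h, 37 °C. Readout: CellTiter-Glo luminescence after 10 min. Data normalized, curve-fitted.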
% is set by controls: 0 for no effect and ±100 for the full control effect; potency is the fitted concentration of half-maximal effect.

Structure (SMILES) | Potency | activity change, negative = cytotoxic
O=c1[nH]c2c(-c3nc(-c4ccc(Cl)cc4)cs3)c(O)cn2c2ccccc12 | inconclusive: 0.184 µM [rising, full curve] | 
Cc1nn(-c2ccccc2)c(C)c1/C=N/NC(=O)c1cc(-c2cccs2)[nH]n1 | active: 0.517 µM | 
O=S(=O)(Nc1ccc(Cl)cc1NS(=O)(=O)c1ccccc1)c1ccccc1 | inactive | 
C=CCN1C(=O)N(/C=C/C)c2cccc3cccc1c23 | inactive | 
CCCCn1c(N)c(N(CCC(C)C)C(=O)COC(=O)c2cccnc2SC)c(=O)[nH]c1=O | inconclusive: 18.4 µM [rising, single point] | 
CCC(CO)Oc1cc(NCc2ccccc2Cl)c2ncn(C(C)C)c2c1 (stereo not given) | inconclusive: 16.4 µM [cytotoxic, single point] | 
O=C(O)C(=O)/C(=C\c1cccc2ccccc12)c1ccc2ccccc2n1 | inconclusive: 29.1 µM [cytotoxic, single point] | 
Cc1ccc(OCC(=O)N2CCN(c3nnc(-c4ccccc4)c4ccccc34)CC2)cc1 | inconclusive: 32.6 µM [cytotoxic, single point] | 
C[C@H]1CN([C@@H](C)CO)C(=O)CCCn2cc(nn2)CO[C@@H]1CN(C)C(=O)c1ccncc1 | inconclusive: 0.82 µM [rising, partial curve, poor fit] | 
COc1ccc(N2CCN(C(=O)c3oc4ccccc4c3NC(=O)Cc3ccc(OC)c(OC)c3)CC2)cc1 | inconclusive: 0.411 µM [cytotoxic, full curve, poor fit] | 
OCCC1CN(Cc2ccc3cc(Cl)ccc3n2)CCN1Cc1ccsc1 (stereo not given) | inconclusive: 29.1 µM [cytotoxic, partial curve, poor fit] | 
COC(=O)c1ccccc1NC(=O)C1CC(=O)N(c2ccc(C)cc2)C1 (stereo not given) | inconclusive: 29.1 µM [cytotoxic, single point] | 
CCCCCC(=O)Nc1ccc(S(=O)(=O)NC2=NCCCCC2)cc1 | inactive | 
Cc1ccc(NC(=O)/C=C/c2ccccc2)c(Br)c1 | inactive | 
CCOC(=O)/C(C#N)=C/C1=C(N2CCCC2)CC(C)(CC)OC1 (stereo not given) | inactive | 
CN(C)c1c(Cl)cc(/C=C2\C=Cc3ccccc32)cc1Cl | inactive | 
Cc1nn(CC(=O)NC2CC2)c(=O)c2cc3ccccc3n12 | inactive | 
Cc1ccc(/C=C/C2=NN(Cc3ccccc3Cl)C(=O)CC2)cc1 | inconclusive: 23.1 µM [cytotoxic, single point] | 
COc1cc(/C=C/c2ccnc3ccccc23)ccc1N(C)C | inconclusive: 0.731 µM [cytotoxic, full curve, poor fit] | 
Cc1ccc(-n2nc3c(N4CCC(C(=O)NC(C)C)CC4)nnc(C)c3c2C)cc1 | inactive | 
COc1ccc(OC(F)(F)F)cc1CC1(C)C(=O)Nc2ccc(S(=O)(=O)NC3CCCCC3)cc21 (stereo not given) | inconclusive: 29.1 µM [cytotoxic, single point] | 
Cc1ccc(S(=O)(=O)Nc2ncnc3sc(C)c(C)c23)cc1 | inconclusive: 20.6 µM [cytotoxic, single point] | 
Cc1cc2oc(=O)cc(-c3ccccc3)c2c(C)c1-c1ccc(O)cc1 | inconclusive: 3.66 µM [cytotoxic, partial curve, poor fit] | 
Cc1ccc(NC(=O)c2ccc(NCCCN3CCC(C)CC3)c([N+](=O)[O-])c2)c(C)c1 | inactive | 

Structure (SMILES) | Potency | activity change, negative = cytotoxic
Cc1c(C(=O)NNC(=S)Nc2cccc(Cl)c2)nnn1-c1ccccc1 | inconclusive: 29.1 µM [cytotoxic, single point] | 
Cc1noc(/C=C/N(C)C)c1S(=O)(=O)N1CCC(C(=O)Nc2ccc(Cl)cc2)CC1 |  | inconclusive: -30.7% [cytotoxic]
CC(C)COP(=O)(OCC(C)C)C(Nc1ccccc1)c1ccc(F)cc1 (stereo not given) | inconclusive: 18.4 µM [cytotoxic, single point] | 
O=C(COC(=O)C12CC3CC(CC(Br)(C3)C1)C2)NCc1ccco1 | inconclusive: 29.1 µM [rising, single point] | 
O=C(C[N+]12CCCc3cccc(c31)CCC2)c1ccc2ccc3cccc4ccc1c2c34 | inconclusive: 16.4 µM [cytotoxic, single point] | 
O=C(C[n+]1c2ccccc2cc2ccccc21)c1ccc(F)cc1 | inconclusive: 25.9 µM [rising, partial curve, poor fit] | 
Cc1ccccc1NC(=O)c1ccc(CN2CCc3ccccc3C2)cc1 | active: 10.3 µM | 
CC(C)(C)NC(=O)C(c1cccs1)N(CC1CCCO1)C(=O)c1ccc(-c2ccccc2)[nH]1 (stereo not given) | inconclusive: 29.1 µM [cytotoxic, single point] | 
Cc1nnc(SCC(=O)Nc2cc(-c3cc(C)c(C)cc3C)nn2-c2ccccc2)s1 | inconclusive: 29.1 µM [cytotoxic, single point] | 
CC(C)c1ccc(/C=C(\c2nc3ccccc3[nH]2)S(=O)(=O)c2ccccc2)cc1 | inconclusive: 3.26 µM [cytotoxic, full curve, poor fit] | 
Cc1cccc(NC(=S)Nc2cccc(C(F)(F)F)c2)n1 | inconclusive: 29.1 µM [cytotoxic, single point] | 
Cc1ccc(S(=O)(=O)NCC(=O)OCCOc2ccccc2F)cc1 | inactive | 
CCCCCCCCCCCCCCCC(=O)Nc1ccn(C2OC(CO)C(O)C2O)c(=O)n1 (stereo not given) | inconclusive: 18.4 µM [cytotoxic, partial curve] | 
CCC(C)NC(=O)c1cc2c(=O)[nH]c3ccc(C)cc3c2s1 (stereo not given) | inactive | 
O=S(=O)(NCCc1cn2ccccc2n1)c1ccc(-c2ccccc2)cc1 | inactive | 
Cc1cnc2ccc(I)cc2c1/C=C/c1ccc(N(C)C)cc1 | active: 11.6 µM | 
OC[C@H](S)CS | inconclusive: 29.1 µM [cytotoxic, single point] | 
COc1cc(-c2noc(C)c2C#Cc2ccccn2)cc(OC)c1OC | active: 580 nM and inconclusive: 651 nM [cytotoxic, full curve, poor fit] | 
O=C(CSc1nc2c(c(=O)[nH]1)CCC2)Nc1ccccc1F | inactive | 
CCOc1ccc(CNC(=O)c2cc3oc4ccccc4c3n2C)cc1 | inconclusive: 2.59 µM [cytotoxic, full curve, poor fit] | 
Cc1ccc(OCc2ccc(C(=O)NCc3cccnc3)cc2)cc1C | inconclusive: 18.4 µM [cytotoxic, single point] | 
C=CCn1c(CNC(=O)c2cccs2)nnc1SCC(=O)Nc1ccc(C(=O)O)cc1 | inactive | 
COc1ccc(NS(=O)(=O)c2cccc(NC(=O)c3ccccn3)c2)cc1 | inconclusive: 10.3 µM [cytotoxic, partial curve, poor fit] | 
O=C(/C=C/c1ccc(OCCCF)cc1)Nc1ccnc(-c2cccnc2)n1 | inactive | 

Structure (SMILES) | Potency | activity change, negative = cytotoxic
CCN(CC(=O)Nc1ccc(NC(C)=O)cc1)CC(=O)Nc1ccc(Cl)c(Cl)c1 | inactive | 
O=C1C=C(N2CCN(C(=O)c3ccccc3)CC2)C2(CCCCC2)O1 | inactive | 
COc1cc(/C=C/c2cc(C(F)(F)F)[nH]c(=O)n2)cc(OC)c1OC | inconclusive: 23.1 µM [cytotoxic, partial curve, poor fit] | 
COc1cc(C2NC(=S)NC(C)=C2C(=O)Nc2ccc(C)cc2)ccc1O (stereo not given) | inactive | 
O=C(Nc1ccc(F)cc1)[C@H](Cc1ccccc1)N1Cc2ccccc2C1=O | inactive | 
CCCCCn1c(CN2CCN(c3cccc(Cl)c3)CC2)nc2c1c(=O)[nH]c(=O)n2C | active: 23.1 µM | 
CCOc1ccc(C(=O)N/N=C(\c2ccccc2)c2ccccn2)cc1 | inconclusive: 18.4 µM [cytotoxic, single point] | 
CN(C(=O)COC(=O)C1COc2ccccc2O1)C1(C#N)CCCCC1 (stereo not given) | inactive | 
CC1(C(=O)Nc2ccc(Cl)c(Cl)c2)CCN1Cc1ccccc1OC(F)F (stereo not given) | inconclusive: 18.4 µM [cytotoxic, single point] | 
O=C(CC1N=C2c3ccccc3N=C(SCc3ccccc3Cl)N2C1=O)NCc1ccco1 (stereo not given) | inconclusive: 29.1 µM [cytotoxic, single point] | 
Cc1cccc(C(=O)NNC2=C(C(=O)C(F)(F)F)CCC2)c1O | inconclusive: 29.1 µM [cytotoxic, single point] | 
CCN(CC)CCNC(=O)c1cc(Sc2nnc(C)s2)nc2ccccc12 | inconclusive: 25.9 µM [cytotoxic, single point] | 
COc1ccc(/C=C/C(=O)Nc2ccccc2C)cc1S(=O)(=O)N1CCOCC1 | inconclusive: 9.2 µM [cytotoxic, partial curve] | 
O=C(COc1ccccc1F)Nc1ccc2[nH]c(=O)[nH]c2c1 | inconclusive: 9.2 µM [cytotoxic, partial curve, poor fit] | 
NC1=NC[C@H](Cc2ccc(O)cc2)N1CCCCC1CCCCC1 | inconclusive: 18.4 µM [cytotoxic, single point] | 
CC1(C(=O)NS(=O)(=O)Cc2cccc(Cl)c2)CCN1C(=O)C1CCCCC1 (stereo not given) | inactive | 
COc1ccc(-c2cn(-c3ccccc3)c3[n+]2CCS3)cc1 | active: 2.59 µM and active: 3.26 µM | 
CC(=O)c1cccc(NC(=O)C(C)OC(=O)c2ccc3ncsc3c2)c1 (stereo not given) | inconclusive: 29.1 µM [cytotoxic, single point] | 
Cc1cccc(-n2c(SCC(N)=O)nc3c(oc4ccccc43)c2=O)c1 | inconclusive: 0.0461 µM [cytotoxic, full curve] | 
CCOC(=O)CC1COc2ccccc2N1C(=O)c1ccc(C)cc1 (stereo not given) | inactive | 
O=C(CSc1nnc(-c2cnccn2)n1Cc1ccco1)c1ccc(Cl)cc1 | inactive | 
C[C@@]12C(=O)Nc3ccccc3C(=O)N1[C@H]1c3cc(Br)ccc3OC[C@@H]1[C@@H]2c1ccccc1 | inconclusive: 29.1 µM [cytotoxic, single point] | 
